In the supplement of paper PMC12067093, “Discovery and optimisation of a covalent ligand for TRIM25 and its application to targeted protein ubiquitination” (Chemical Science, 2025):
The other results are listed elsewhere or left out.

The chains behind the UniProt entries cited, without tags or fusion partners. Where a name states a change or a piece, a line headed by the entry shows the natural chain unless it says otherwise.
UniProt Q5T011: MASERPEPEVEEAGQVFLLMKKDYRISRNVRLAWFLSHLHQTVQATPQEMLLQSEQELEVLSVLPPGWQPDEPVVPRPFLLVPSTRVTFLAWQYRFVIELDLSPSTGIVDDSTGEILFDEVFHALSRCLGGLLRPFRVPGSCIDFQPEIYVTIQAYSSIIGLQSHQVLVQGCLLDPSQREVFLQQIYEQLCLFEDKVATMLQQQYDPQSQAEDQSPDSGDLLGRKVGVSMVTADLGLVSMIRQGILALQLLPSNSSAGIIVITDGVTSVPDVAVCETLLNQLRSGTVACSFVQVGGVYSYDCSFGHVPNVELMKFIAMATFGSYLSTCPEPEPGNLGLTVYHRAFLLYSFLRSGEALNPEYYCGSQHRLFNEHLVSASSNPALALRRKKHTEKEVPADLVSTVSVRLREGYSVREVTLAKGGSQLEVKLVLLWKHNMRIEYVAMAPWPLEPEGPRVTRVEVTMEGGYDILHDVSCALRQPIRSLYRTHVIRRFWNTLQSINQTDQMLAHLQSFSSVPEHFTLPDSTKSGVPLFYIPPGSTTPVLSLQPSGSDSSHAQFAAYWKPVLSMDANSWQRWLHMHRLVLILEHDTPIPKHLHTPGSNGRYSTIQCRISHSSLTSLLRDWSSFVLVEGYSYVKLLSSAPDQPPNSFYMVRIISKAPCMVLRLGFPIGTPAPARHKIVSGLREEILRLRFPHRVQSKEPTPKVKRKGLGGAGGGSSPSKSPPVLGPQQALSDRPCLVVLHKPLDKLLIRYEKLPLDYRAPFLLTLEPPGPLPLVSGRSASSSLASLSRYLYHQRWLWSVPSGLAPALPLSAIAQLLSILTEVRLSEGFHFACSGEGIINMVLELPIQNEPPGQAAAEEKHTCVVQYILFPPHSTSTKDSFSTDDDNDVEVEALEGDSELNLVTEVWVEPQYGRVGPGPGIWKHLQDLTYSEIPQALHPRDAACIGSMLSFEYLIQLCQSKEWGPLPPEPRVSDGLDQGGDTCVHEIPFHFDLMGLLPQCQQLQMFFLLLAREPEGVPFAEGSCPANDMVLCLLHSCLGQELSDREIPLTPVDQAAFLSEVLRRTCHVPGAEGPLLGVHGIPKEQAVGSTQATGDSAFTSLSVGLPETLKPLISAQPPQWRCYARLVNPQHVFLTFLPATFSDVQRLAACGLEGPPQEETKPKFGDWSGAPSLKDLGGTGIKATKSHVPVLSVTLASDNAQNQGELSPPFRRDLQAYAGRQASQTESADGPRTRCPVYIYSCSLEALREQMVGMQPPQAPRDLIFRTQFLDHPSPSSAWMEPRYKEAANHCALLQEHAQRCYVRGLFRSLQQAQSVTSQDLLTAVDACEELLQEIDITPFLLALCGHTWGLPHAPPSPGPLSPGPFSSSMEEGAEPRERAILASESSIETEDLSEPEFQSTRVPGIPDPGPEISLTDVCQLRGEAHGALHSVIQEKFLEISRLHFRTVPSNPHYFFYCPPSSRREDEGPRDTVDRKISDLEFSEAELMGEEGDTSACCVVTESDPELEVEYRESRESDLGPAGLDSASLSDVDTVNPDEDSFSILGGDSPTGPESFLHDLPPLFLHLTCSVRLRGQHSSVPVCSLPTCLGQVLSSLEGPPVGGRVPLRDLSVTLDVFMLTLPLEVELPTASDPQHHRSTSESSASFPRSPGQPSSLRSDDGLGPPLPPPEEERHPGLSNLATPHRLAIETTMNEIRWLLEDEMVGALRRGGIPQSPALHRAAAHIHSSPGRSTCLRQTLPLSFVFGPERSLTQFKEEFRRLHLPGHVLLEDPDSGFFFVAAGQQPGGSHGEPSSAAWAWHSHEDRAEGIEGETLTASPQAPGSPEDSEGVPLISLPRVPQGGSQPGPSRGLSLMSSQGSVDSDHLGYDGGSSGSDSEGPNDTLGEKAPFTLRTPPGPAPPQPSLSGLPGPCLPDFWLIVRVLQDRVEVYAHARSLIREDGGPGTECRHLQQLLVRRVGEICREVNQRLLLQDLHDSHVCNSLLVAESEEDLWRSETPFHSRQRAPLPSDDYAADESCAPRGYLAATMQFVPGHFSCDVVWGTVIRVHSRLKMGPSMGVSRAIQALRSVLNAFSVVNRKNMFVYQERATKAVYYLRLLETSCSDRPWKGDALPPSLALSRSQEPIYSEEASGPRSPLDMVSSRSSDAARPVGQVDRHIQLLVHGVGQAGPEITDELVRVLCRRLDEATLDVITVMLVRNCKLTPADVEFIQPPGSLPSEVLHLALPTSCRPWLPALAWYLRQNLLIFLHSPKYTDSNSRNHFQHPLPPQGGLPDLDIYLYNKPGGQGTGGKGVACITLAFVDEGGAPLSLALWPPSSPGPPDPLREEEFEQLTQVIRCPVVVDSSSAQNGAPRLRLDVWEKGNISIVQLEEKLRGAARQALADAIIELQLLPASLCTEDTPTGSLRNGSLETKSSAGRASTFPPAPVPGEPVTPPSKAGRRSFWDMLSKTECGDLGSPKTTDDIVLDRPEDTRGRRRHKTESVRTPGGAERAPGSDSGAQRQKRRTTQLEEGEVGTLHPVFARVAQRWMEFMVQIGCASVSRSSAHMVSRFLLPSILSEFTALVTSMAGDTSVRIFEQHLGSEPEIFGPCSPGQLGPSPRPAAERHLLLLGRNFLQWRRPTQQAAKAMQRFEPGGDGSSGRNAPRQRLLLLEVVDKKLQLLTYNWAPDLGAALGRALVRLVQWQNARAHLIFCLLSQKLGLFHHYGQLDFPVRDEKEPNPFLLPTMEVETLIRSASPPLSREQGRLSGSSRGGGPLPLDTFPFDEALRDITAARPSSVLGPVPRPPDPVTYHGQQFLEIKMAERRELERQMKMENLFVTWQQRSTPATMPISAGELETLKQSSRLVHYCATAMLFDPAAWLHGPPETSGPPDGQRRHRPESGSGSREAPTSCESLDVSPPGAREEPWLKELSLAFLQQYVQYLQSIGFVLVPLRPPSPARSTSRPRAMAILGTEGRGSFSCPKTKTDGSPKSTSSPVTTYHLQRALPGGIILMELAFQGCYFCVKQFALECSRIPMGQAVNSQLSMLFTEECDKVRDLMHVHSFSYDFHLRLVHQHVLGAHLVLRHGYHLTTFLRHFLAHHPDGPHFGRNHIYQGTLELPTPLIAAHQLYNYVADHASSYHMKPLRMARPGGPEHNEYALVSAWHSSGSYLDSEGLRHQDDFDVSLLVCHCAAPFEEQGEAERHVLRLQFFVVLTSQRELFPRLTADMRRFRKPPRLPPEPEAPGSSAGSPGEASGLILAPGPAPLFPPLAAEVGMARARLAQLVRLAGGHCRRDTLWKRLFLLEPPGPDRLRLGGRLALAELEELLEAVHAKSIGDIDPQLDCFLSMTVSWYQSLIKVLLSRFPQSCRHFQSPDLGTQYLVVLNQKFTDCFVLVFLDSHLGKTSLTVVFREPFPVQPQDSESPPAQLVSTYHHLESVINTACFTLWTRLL
UniProt Q9BTW9: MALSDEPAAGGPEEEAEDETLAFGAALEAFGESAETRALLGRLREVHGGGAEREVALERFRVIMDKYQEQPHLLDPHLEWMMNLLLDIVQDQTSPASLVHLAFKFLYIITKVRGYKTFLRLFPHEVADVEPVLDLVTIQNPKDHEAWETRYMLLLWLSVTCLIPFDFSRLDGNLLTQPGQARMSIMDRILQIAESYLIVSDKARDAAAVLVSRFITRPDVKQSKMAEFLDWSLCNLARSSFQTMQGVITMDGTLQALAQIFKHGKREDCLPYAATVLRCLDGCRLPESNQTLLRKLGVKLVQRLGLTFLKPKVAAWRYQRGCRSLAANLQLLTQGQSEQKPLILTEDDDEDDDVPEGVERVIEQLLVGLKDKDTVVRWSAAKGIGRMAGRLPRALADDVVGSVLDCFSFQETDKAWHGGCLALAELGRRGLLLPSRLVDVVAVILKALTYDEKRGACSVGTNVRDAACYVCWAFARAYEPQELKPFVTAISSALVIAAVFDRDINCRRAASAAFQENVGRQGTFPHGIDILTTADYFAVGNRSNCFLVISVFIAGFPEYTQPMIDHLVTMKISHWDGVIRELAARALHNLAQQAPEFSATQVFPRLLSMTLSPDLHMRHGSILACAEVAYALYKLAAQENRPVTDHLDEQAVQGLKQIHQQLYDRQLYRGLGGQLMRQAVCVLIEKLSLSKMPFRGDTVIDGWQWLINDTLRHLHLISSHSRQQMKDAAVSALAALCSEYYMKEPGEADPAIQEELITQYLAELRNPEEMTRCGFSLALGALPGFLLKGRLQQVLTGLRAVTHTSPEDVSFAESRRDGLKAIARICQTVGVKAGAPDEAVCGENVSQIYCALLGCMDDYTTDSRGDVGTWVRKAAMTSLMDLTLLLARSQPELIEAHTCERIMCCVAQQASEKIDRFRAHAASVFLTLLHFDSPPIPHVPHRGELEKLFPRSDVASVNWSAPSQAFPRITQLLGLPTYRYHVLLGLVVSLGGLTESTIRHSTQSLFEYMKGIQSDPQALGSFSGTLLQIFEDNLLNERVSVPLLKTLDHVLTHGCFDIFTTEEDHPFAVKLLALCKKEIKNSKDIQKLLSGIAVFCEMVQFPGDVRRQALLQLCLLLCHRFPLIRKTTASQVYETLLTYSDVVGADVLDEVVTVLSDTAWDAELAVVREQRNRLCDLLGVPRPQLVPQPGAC
UniProt Q15813: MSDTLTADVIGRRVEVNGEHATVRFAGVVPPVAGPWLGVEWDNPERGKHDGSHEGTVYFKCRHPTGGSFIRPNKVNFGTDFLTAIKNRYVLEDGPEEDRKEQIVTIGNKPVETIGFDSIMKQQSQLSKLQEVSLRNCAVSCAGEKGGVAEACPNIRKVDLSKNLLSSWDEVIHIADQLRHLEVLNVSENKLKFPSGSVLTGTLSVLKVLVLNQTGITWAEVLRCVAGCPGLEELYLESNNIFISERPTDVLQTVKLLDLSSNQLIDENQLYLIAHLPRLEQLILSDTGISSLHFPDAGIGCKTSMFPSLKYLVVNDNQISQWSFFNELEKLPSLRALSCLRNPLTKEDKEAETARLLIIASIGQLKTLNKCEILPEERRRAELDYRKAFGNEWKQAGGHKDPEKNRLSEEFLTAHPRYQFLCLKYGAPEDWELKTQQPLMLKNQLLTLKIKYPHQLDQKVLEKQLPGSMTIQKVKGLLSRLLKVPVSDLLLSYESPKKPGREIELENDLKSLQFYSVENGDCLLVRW
UniProt Q12788: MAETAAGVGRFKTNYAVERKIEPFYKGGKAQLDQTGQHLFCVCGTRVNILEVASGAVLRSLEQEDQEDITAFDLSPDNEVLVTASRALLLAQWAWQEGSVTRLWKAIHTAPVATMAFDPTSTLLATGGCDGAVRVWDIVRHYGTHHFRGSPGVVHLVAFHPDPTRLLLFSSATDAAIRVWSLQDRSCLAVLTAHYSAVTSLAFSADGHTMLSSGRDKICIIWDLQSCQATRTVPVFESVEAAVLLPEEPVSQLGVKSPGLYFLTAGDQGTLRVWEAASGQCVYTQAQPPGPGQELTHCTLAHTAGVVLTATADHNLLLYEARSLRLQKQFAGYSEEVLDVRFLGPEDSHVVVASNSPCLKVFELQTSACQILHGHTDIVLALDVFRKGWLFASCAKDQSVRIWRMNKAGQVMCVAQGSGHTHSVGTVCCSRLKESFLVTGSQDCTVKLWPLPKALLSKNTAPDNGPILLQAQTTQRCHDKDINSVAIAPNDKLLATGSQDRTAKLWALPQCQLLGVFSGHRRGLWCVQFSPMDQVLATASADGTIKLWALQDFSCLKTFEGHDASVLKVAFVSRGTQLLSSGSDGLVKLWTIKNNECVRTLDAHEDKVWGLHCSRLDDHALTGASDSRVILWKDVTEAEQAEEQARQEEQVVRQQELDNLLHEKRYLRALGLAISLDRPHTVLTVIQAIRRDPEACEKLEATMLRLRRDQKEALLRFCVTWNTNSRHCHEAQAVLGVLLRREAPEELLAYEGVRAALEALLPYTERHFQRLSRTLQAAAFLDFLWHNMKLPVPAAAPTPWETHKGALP
UniProt Q9Y4P3: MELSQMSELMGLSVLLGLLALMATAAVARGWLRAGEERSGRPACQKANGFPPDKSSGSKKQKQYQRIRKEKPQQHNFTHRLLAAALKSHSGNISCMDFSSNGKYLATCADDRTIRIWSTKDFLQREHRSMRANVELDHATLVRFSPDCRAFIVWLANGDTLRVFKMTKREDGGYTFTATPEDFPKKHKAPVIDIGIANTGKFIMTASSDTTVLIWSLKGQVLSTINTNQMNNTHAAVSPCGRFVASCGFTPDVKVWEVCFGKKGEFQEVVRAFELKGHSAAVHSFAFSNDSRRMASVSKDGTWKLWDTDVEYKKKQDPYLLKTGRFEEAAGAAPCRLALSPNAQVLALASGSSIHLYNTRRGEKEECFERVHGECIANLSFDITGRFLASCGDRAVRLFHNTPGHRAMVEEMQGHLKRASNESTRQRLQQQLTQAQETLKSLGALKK
UniProt O75347: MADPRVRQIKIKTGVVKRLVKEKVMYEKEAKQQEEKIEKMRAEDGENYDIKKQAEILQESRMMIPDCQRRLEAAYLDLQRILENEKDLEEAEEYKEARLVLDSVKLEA

Compound: CC1Cc2ccccc2N1C(=O)C1CCCN(C1)C(=O)CCl (mixture of isomers) [TRIM25 ligand 11 (diastereomer mixture)]
Assay: probe-labelled cysteine peptide fold change vs DMSO (competition) (log2 fold change); higher = less target engagement (more negative = stronger competition)
Details: THP-1, incubation time: 4 h
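Note: competitive chemoproteomic profiling in live THP-1 cells with an iodoacetamide desthiobiotin (IA-DTB) probe, comparing probe-labelled peptide intensities in compound-treated cells against DMSO-treated controls.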

Target | probe-labelled cysteine peptide fold change (10 µM) | probe-labelled cysteine peptide fold change (50 µM)
TARSL2_A2RTX5_422_EQELFFFHDLSPGSCFFLPR (UniProt A2RTX5) | -0.141 | -0.229
TARBP2_Q15633_73_VTVGDTSCTGQGPSK (UniProt Q15633) | 0.0512 | 0.117
TAF2_Q6P1X5_701_MSACFCLAK (UniProt Q6P1X5) | 0.02 | 0.182
SZT2_Q5T011_1460_TVPSNPHYFFYCPPSSR (UniProt Q5T011) | 0.0892 | 0.0106
TAF6L_Q9Y6J9_122_GCAETAVR (UniProt Q9Y6J9) | -0.0238 | 0.0809
TARSL2_A2RTX5_74_LCLAEER (UniProt A2RTX5) | -0.0772 | -0.0224
SYVN1_Q86TM6_329_QQTCPTCR (UniProt Q86TM6) | -0.0271 | -0.00508
SZT2_Q5T011_2893_EAPTSCESLDVSPPGAR (UniProt Q5T011) | 0.119 | -0.0522
TARS2_Q9BW92_233_VTGPTATVYGCGTLVDLCQGPHLR (UniProt Q9BW92) | 0.288 | 0.266
TARSL2_A2RTX5_546_FQQDDAHIFCTVEQIEEEIK (UniProt A2RTX5) | – | 0.235
SYK_P43405_259_VLTVPCQK (UniProt P43405) | 0.0293 | 0.0389
TBC1D1_Q86TI0_454_CLYEEK (UniProt Q86TI0) | 0.0241 | 0.0144
TATDN1_Q6P1N9_168_CVGGVVHSFDGTK (UniProt Q6P1N9) | -0.0418 | -0.00576
TARS_P26639_254_CGPLIDLCR (UniProt P26639) | 0.0498 | 0.049
TAPBPL_Q9BX59_283_DASLTLPGLTIQDEGTYICQITTSLYR (UniProt Q9BX59) | 0.341 | 0.391
TANC1_Q9C0D5_800_MDALSCFLIK (UniProt Q9C0D5) | – | 0.0229
SYNJ2_O15056_19_LGAEGDCSVLLEAR (UniProt O15056) | 0.0723 | 0.274
TBCD_Q9BTW9_457_GACSVGTNVR (UniProt Q9BTW9) | 0.145 | –
TCEA1_P23193_212_NVLCGNIPPDLFAR (UniProt P23193) | 0.0376 | 0.122
TAGLN2_P37802_63_DGTVLCELINALYPEGQAPVKK (UniProt P37802) | -0.273 | -0.222
TCEAL3_Q969E4_44_TECEGKREDEGEPGDEGQLEDEGSQEK (UniProt Q969E4) | -0.32 | –
TAOK1_Q7L7X3_730_QFQDTCK (UniProt Q7L7X3) | 0.0139 | 0.00821

Target | probe-labelled cysteine peptide fold change (10 µM) | probe-labelled cysteine peptide fold change (50 µM)
TAPT1_Q6NXT6_562_DLLEIDRFTICGNRID (UniProt Q6NXT6) | -0.305 | -0.344
TBC1D13_Q9NVG8_387_LLQDYPITDVCQILQK (UniProt Q9NVG8) | -0.0113 | -0.192
TAF1B_Q53T94_326_YLMEVNLPDEMHSLTCHVVK (UniProt Q53T94) | 0.0849 | -0.0796
TAF6_P49848_235_EITEACVGSCEAK (UniProt P49848) | -0.0162 | -0.263
TAPT1_Q6NXT6_562_DLLEIDRFTICGNR (UniProt Q6NXT6) | -0.000619 | -0.0974
TBC1D24_Q9ULP9_386_FYFQCEGHEPTLLLIK (UniProt Q9ULP9) | 0.226 | 0.199
TACC1_O75410_467_LITSGCK (UniProt O75410) | -0.104 | -0.377
TBCE_Q15813_152_GGVAEACPNIR (UniProt Q15813) | -0.0301 | 0.0661
TBCC_Q15814_6_MESVSCSAAAVR (UniProt Q15814) | 0.458 | 0.287
TAX1BP1_Q86VP1_196_ERCDQLQAEQK (UniProt Q86VP1) | -0.0985 | -0.128
TARSL2_A2RTX5_637_YHQCATIQLDFQLPIR (UniProt A2RTX5) | 0.03 | 0.0695
SYPL1_Q16563_193_IATGHNIIDELPPCK (UniProt Q16563) | 0.0551 | -0.0907
TACC1_O75410_794_ICDELIAK (UniProt O75410) | 0.0492 | 0.188
SYK_P43405_206_DNNGSYALCLLHEGK (UniProt P43405) | -0.078 | 0.0975
TBC1D22A_Q8WUA7_151_SVSESHTSCPAESASDAAPLQR (UniProt Q8WUA7) | -0.0514 | -0.228
TBL3_Q12788_526_GLWCVQFSPMDQVLATASADGTIK (UniProt Q12788) | 0.0333 | 0.0681
SYK_P43405_101_THASPADLCHYHSQESDGLVCLLK (UniProt P43405) | 0.059 | -0.00167
TCEA1_P23193_212_KNVLCGNIPPDLFAR (UniProt P23193) | -0.214 | -0.0512
TAPBP_O15533_115_WASGLTPAQNCPR (UniProt O15533) | 0.107 | -0.0566
TACC3_Q9Y6A5_828_ICDDLISK (UniProt Q9Y6A5) | -0.041 | 0.139
TBCD_Q9BTW9_1055_TLDHVLTHGCFDIFTTEEDHPFAVK (UniProt Q9BTW9) | -0.0281 | -0.0769
TARBP1_Q13395_592_VNESYFKPSPTCSSIGLHK (UniProt Q13395) | 0.0579 | -0.264

Target | probe-labelled cysteine peptide fold change (10 µM) | probe-labelled cysteine peptide fold change (50 µM)
TBCE_Q15813_301_LEQLILSDTGISSLHFPDAGIGCK (UniProt Q15813) | -0.0112 | -0.201
TBCD_Q9BTW9_1075_LLALCK (UniProt Q9BTW9) | 0.0903 | 0.209
TACC3_Q9Y6A5_20_NTENCDFLFSPPEVTGR (UniProt Q9Y6A5) | -0.00863 | -0.107
TANGO6_Q9C0B7_375_DICPQVLDLFHFQDK (UniProt Q9C0B7) | -0.119 | -0.109
TAF4_O00268_1066_DLIFCLENER (UniProt O00268) | 0.0807 | 0.15
TBPL1_P62380_24_CHLNLR (UniProt P62380) | -0.0383 | 0.0657
TBRG4_Q969Z0_191_HLAFLAESCATLSQEQHSQELLAELLTHLER (UniProt Q969Z0) | -0.117 | -0.191
SYMPK_Q92797_686_KYCEDESR (UniProt Q92797) | -0.0067 | 0.119
TACC1_O75410_482_KHETQSLALDACSR (UniProt O75410) | 0.0569 | -0.387
TACC1_O75410_174_AAHGCVTAVSGK (UniProt O75410) | -0.0137 | -0.145
TAP2_Q03519_641_VLILDEATSALDVQCEQALQDWNSR (UniProt Q03519) | -0.0532 | -0.0718
TBL2_Q9Y4P3_335_TGRFEEAAGAAPCR (UniProt Q9Y4P3) | -0.0894 | -0.161
TBC1D9B_Q66K14_340_EEDACHLIIPLR (UniProt Q66K14) | 0.146 | 0.252
TBC1D2B_Q9UPU7_554_TPVCSEDQGPTR (UniProt Q9UPU7) | 0.021 | -0.103
TBL1XR1_Q9BZK7_434_GICIHTLTK (UniProt Q9BZK7) | -0.0452 | 0.0102
TBC1D22B_Q9NU19_206_CSWPGVPR (UniProt Q9NU19) | 0.0348 | 0.122
SYK_P43405_593+597_MGCPAGCPR (UniProt P43405) | 0.16 | 0.0781
TBL2_Q9Y4P3_95_SHSGNISCMDFSSNGK (UniProt Q9Y4P3) | -0.0871 | -0.239
TATDN1_Q6P1N9_261_DRNEPCHIIQILEIMSAVR (UniProt Q6P1N9) | 0.226 | 0.114
TBCE_Q15813_371_CEILPEER (UniProt Q15813) | -0.11 | -0.0491
TATDN1_Q6P1N9_253_KWESGHCLK (UniProt Q6P1N9) | 0.0664 | -0.0599
TBL3_Q12788_613_VWGLHCSR (UniProt Q12788) | 0.119 | -0.0493

Target | probe-labelled cysteine peptide fold change (10 µM) | probe-labelled cysteine peptide fold change (50 µM)
TACC3_Q9Y6A5_206_VTPASETLEDPCR (UniProt Q9Y6A5) | 0.0528 | -0.154
TATDN1_Q6P1N9_81_CGEFEK (UniProt Q6P1N9) | -0.107 | -0.107
SZT2_Q5T011_2019_APLPSDDYAADESCAPR (UniProt Q5T011) | 0.197 | -0.14
TAF5_Q15542_661_LWDVLNGNCVR (UniProt Q15542) | -0.246 | 0.0571
TACC1_O75410_715_CAQDYLAR (UniProt O75410) | -0.0907 | -0.226
TBCA_O75347_67_MMIPDCQR (UniProt O75347) | -0.191 | -0.228
TARDBP_Q13148_39_VTEDENDEPIEIPSEDDGTVLLSTVTAQFPGACGLR (UniProt Q13148) | -0.206 | 0.0368
TBCD_Q9BTW9_420_AWHGGCLALAELGRR (UniProt Q9BTW9) | -0.118 | -0.156
TAF5_Q15542_273_FHGDQECYYQDDLR (UniProt Q15542) | 0.241 | -0.0768
TARS_P26639_137_VNNVVWDLDRPLEEDCTLELLKFEDEEAQAVYWHSSAHIMGEAMER (UniProt P26639) | -0.414 | -0.224
TBL2_Q9Y4P3_391_FLASCGDR (UniProt Q9Y4P3) | -0.0125 | 0.0692
TAP2_Q03519_540_PISQYEHCYLHSQVVSVGQEPVLFSGSVR (UniProt Q03519) | 0.168 | 0.0109
SYMPK_Q92797_848_GMGMNSPELLLLVENCPK (UniProt Q92797) | 0.175 | -0.0231
TACO1_Q9BSH4_234_FICDASSLHQVR (UniProt Q9BSH4) | 0.266 | 0.00692
TBCD_Q9BTW9_234_MAEFLDWSLCNLAR (UniProt Q9BTW9) | 0.16 | 0.00397
TBC1D1_Q86TI0_766_LDYEEITPCLK (UniProt Q86TI0) | 0.0592 | -0.032
TCEA1_P23193_271_NCTYTQVQTR (UniProt P23193) | -0.162 | -0.0772
TBL1X_O60907_571_VGASASDGSVCVLDLR (UniProt O60907) | 0.0921 | -0.099
TBL1X_O60907_571_VGASASDGSVCVLDLRK (UniProt O60907) | -0.176 | -0.16
TACO1_Q9BSH4_160_CQADIR (UniProt Q9BSH4) | -0.00854 | 0.0462
